Laboratory results as given in article PMC13036090.

Protein sequences, listed by entry. Tags and fused reporters are not part of them.
UniProt P42224: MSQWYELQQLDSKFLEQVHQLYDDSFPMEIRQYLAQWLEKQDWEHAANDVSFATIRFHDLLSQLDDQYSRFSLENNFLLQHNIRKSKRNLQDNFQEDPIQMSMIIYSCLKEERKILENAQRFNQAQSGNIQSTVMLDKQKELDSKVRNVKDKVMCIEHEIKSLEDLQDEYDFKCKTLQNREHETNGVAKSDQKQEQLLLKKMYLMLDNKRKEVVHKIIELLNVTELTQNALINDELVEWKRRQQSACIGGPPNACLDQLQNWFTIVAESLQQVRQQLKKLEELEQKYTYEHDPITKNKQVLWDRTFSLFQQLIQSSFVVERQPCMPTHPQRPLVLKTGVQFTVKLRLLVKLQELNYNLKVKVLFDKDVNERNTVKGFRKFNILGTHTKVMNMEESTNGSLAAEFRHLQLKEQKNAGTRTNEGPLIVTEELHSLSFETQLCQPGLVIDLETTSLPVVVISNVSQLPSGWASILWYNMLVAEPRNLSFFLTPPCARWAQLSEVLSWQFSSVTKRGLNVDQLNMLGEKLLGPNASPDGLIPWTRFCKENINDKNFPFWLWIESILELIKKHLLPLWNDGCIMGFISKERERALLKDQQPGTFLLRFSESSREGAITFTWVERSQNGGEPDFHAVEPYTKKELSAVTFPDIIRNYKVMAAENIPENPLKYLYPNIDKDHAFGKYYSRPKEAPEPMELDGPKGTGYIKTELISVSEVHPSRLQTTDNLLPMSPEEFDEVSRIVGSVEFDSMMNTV
UniProt Q14974: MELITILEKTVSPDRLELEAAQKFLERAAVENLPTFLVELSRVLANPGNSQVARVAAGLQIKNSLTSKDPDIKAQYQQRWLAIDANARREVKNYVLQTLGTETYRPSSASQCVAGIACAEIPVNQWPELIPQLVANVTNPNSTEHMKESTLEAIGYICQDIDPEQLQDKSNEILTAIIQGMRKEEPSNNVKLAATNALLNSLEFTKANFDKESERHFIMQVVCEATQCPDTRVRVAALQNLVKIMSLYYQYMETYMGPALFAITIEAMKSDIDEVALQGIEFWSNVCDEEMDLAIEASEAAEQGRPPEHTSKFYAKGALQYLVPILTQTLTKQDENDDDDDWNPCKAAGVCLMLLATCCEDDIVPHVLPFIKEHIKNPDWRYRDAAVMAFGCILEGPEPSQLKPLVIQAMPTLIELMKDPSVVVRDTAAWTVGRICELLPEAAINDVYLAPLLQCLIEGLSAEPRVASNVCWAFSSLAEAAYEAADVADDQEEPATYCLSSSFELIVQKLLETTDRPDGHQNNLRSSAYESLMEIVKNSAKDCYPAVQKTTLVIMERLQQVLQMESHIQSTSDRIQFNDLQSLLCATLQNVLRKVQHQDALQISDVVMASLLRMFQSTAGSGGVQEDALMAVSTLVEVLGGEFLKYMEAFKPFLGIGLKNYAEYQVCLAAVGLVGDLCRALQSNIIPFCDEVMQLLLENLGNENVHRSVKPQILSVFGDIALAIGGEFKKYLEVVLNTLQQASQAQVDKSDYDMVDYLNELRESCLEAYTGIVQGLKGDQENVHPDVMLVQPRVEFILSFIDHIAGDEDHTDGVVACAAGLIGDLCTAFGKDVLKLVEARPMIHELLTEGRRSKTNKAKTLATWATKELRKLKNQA

Molecular target: T1, UGDH (uridine diphosphate glucose dehydrogenase), wild type, construct not stated for these experiments (human) (UniProt O60701)
T1 sequence (chain, O-GlcNAc on Ser350 (major site) on part of the protein): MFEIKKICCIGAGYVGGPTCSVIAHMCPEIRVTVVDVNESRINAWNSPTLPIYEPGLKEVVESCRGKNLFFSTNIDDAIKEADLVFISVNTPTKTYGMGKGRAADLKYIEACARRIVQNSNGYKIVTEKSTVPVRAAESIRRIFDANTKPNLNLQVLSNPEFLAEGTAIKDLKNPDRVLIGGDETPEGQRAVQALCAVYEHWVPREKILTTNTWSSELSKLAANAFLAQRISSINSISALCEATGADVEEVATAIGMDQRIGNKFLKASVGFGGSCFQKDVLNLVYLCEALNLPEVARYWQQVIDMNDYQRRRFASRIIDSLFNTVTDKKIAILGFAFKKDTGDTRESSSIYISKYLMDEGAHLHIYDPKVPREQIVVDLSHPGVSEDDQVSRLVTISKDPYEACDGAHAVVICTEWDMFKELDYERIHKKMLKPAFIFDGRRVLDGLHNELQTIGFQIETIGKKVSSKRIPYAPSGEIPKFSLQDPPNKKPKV
Test: affinity purification with mass spectrometry; immunoprecipitation coupled with mass spectrometry (IP-MS) of WT and S350A UGDH; cells and tag not told

Substance | binding
STAT1 in the UGDH IP-MS (from UniProt P42224 1-750) | binds weakly
KPNB1 found in the UGDH IP-MS (from UniProt Q14974 1-876) | binds

No constants are given. Whether binding was seen depends on the method and setting. In cells and extracts the contact can be indirect. These calls come from enrichment with a bait or labelling near it, and not all partners need be listed. Sequences can lack the tags named with a protein.
